Measurements as given in article PMC5008806.
Results are given in words; binding and its absence hold for the method and conditions named. Binding seen in cells or lysates may run through a third protein. For part of these data: Binding calls can cover weak binding; strength is not graded here. For part of these data: Tags and fused reporters may be left off the sequences shown. Blank lines part the entries; values can stand above or below the molecule they belong to.

The chains behind the UniProt entries cited, without tags or fusion partners. Where a name states a change or a piece, a line headed by the entry shows the natural chain unless it says otherwise.
UniProt P12830: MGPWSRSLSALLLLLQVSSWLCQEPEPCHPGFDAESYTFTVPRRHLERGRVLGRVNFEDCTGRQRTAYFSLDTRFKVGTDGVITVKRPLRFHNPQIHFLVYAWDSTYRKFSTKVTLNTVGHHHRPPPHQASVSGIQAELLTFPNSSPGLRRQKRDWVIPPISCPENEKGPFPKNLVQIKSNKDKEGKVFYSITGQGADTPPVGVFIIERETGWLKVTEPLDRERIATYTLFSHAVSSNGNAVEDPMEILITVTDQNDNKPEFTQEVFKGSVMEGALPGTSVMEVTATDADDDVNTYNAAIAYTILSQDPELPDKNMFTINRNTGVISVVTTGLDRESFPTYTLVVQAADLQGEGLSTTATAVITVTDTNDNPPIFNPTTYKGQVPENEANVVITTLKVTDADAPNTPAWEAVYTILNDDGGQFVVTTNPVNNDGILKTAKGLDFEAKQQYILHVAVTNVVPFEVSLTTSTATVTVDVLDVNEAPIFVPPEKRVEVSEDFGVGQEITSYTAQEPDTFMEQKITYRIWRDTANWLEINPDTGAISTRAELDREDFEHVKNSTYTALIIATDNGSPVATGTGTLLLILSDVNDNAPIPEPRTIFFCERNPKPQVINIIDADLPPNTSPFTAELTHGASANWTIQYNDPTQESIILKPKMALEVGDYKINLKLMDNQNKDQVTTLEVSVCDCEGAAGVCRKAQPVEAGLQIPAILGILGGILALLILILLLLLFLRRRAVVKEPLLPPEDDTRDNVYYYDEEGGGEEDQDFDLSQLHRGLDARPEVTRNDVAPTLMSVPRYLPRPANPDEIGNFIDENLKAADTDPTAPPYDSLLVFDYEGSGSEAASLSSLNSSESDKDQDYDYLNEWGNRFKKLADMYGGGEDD

Legend:
[1] = target: T1, p120/σ-catenin (endogenous, mouse) (mouse (endogenous in sciatic nerve and Schwann cells)) (UniProt P30999); experiment: co-IP; endogenous proteins in sciatic nerve lysates of Pmp22+/+ mice (P10, P15, 3 and 6 months old, by panel); IP with anti-E-cadherin, anti-p120/σ-catenin or anti-β-catenin antibody, control IgG; overnight at 4°C, protein G agarose beads; immunoblot
T1 sequence: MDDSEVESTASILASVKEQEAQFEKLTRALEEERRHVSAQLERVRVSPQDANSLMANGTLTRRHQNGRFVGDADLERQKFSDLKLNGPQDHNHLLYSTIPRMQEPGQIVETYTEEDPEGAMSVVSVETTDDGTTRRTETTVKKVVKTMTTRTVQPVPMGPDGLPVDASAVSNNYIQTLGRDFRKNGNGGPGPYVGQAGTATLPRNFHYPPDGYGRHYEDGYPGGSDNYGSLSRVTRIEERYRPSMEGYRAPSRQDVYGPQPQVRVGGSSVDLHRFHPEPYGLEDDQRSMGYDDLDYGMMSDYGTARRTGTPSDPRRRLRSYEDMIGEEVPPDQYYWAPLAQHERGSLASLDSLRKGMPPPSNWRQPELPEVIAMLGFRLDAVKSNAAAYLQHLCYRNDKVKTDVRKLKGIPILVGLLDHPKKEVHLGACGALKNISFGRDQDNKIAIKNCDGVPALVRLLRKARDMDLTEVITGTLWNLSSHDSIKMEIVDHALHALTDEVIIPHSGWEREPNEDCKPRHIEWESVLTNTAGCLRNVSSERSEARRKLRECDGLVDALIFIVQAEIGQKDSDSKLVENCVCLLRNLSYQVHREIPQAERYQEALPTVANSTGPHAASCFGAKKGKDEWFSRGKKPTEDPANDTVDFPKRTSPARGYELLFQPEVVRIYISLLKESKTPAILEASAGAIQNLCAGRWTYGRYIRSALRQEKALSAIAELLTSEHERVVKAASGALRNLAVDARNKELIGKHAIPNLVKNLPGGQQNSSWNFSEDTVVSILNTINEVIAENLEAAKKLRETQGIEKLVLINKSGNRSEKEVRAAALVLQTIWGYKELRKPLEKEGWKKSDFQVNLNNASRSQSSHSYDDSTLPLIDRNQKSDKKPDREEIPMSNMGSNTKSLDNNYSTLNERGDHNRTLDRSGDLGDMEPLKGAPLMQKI

[2] = target: GFP-tagged E-cadherin mutant E+T (intracellular domain deleted) (UniProt P12830); experiment: co-IP; HA-tagged PMP22 co-expressed with GFP-tagged E-cadherin or its mutants in HEK293a cells; lysates immunoprecipitated and blotted with GFP or HA antibodies; primary antibody overnight at 4°C, protein G agarose beads
[3] = target: GFP-tagged wild-type E-cadherin (UniProt P12830); experiment: as above
[4] = target: E-cadherin (endogenous, mouse) (mouse (endogenous in sciatic nerve and Schwann cells)); experiment: co-IP; endogenous proteins in sciatic nerve lysates of 3-month-old (adult) Pmp22+/+ mice; IP with anti-E-cadherin antibody, blot with anti-PMP22
[5] = target: E-cadherin (endogenous, mouse) (mouse (endogenous in sciatic nerve and Schwann cells)); experiment: co-IP; endogenous proteins in sciatic nerve lysates of Pmp22+/+ mice (P10, P15, 3 and 6 months old, by panel); IP with anti-E-cadherin, anti-p120/σ-catenin or anti-β-catenin antibody, control IgG; overnight at 4°C, protein G agarose beads; immunoblot

Molecule: E-cadherin (endogenous, mouse)
- binding [1]: binds

B1: Human HA-tagged PMP22 (protein, UniProt Q01453 1-160)
chain: MLLLLLSIIVLHVAVLVLLFVSTIVSQWIVGNGHATDLWQNCSTSSSGNVHHCFSSSPNEWLQSVQATMILSIIFSILSLFLFFCQLFTLTKGGRFYITGIFQILAGLCVMSAAAIYTVRHPEWHLNSDYSYGFAYILAWVAFPLALLSGVIYVILRKRE
- binding [2]: binds
- binding [3]: binds

Second part, led by results:

- binding [5]: binds
B2: PMP22 (endogenous, mouse sciatic nerve) (protein, UniProt P16646 1-161)
chain: MLLLLLGILFLHIAVLVLLFVSTIVSQWLVGNGHTTDLWQNCTTSALGAVQHCYSSSVSEWLQSVQATMILSVIFSVLALFLFFCQLFTLTKGGRFYITGFFQILAGLCVMSAAAIYTVRHSEWHVNTDYSYGFAYILAWVAFPLALLSGIIYVILRKREL
- binding [4]: no binding (only in 3-month-old (adult) nerves)

- binding [5]: binds
B3: p120/σ-catenin (endogenous, mouse) (protein, UniProt P30999 1-938)
chain: MDDSEVESTASILASVKEQEAQFEKLTRALEEERRHVSAQLERVRVSPQDANSLMANGTLTRRHQNGRFVGDADLERQKFSDLKLNGPQDHNHLLYSTIPRMQEPGQIVETYTEEDPEGAMSVVSVETTDDGTTRRTETTVKKVVKTMTTRTVQPVPMGPDGLPVDASAVSNNYIQTLGRDFRKNGNGGPGPYVGQAGTATLPRNFHYPPDGYGRHYEDGYPGGSDNYGSLSRVTRIEERYRPSMEGYRAPSRQDVYGPQPQVRVGGSSVDLHRFHPEPYGLEDDQRSMGYDDLDYGMMSDYGTARRTGTPSDPRRRLRSYEDMIGEEVPPDQYYWAPLAQHERGSLASLDSLRKGMPPPSNWRQPELPEVIAMLGFRLDAVKSNAAAYLQHLCYRNDKVKTDVRKLKGIPILVGLLDHPKKEVHLGACGALKNISFGRDQDNKIAIKNCDGVPALVRLLRKARDMDLTEVITGTLWNLSSHDSIKMEIVDHALHALTDEVIIPHSGWEREPNEDCKPRHIEWESVLTNTAGCLRNVSSERSEARRKLRECDGLVDALIFIVQAEIGQKDSDSKLVENCVCLLRNLSYQVHREIPQAERYQEALPTVANSTGPHAASCFGAKKGKDEWFSRGKKPTEDPANDTVDFPKRTSPARGYELLFQPEVVRIYISLLKESKTPAILEASAGAIQNLCAGRWTYGRYIRSALRQEKALSAIAELLTSEHERVVKAASGALRNLAVDARNKELIGKHAIPNLVKNLPGGQQNSSWNFSEDTVVSILNTINEVIAENLEAAKKLRETQGIEKLVLINKSGNRSEKEVRAAALVLQTIWGYKELRKPLEKEGWKKSDFQVNLNNASRSQSSHSYDDSTLPLIDRNQKSDKKPDREEIPMSNMGSNTKSLDNNYSTLNERGDHNRTLDRSGDLGDMEPLKGAPLMQKI
